Experimental data reported in publication PMC12774657.
No constants are given. Whether binding was seen depends on the method and setting. In cells and extracts the contact can be indirect. These calls come from enrichment with a bait or labelling near it, and not all partners need be listed.

Protein sequences, listed by entry. Tags and fused reporters are not part of them. Lines headed by an entry give the natural chain unless they say otherwise; changes in a name come on top. Chains listed by the source or under a name are the forms on record and can include a tag or linker. Residues count along the entry.
UniProt P81133: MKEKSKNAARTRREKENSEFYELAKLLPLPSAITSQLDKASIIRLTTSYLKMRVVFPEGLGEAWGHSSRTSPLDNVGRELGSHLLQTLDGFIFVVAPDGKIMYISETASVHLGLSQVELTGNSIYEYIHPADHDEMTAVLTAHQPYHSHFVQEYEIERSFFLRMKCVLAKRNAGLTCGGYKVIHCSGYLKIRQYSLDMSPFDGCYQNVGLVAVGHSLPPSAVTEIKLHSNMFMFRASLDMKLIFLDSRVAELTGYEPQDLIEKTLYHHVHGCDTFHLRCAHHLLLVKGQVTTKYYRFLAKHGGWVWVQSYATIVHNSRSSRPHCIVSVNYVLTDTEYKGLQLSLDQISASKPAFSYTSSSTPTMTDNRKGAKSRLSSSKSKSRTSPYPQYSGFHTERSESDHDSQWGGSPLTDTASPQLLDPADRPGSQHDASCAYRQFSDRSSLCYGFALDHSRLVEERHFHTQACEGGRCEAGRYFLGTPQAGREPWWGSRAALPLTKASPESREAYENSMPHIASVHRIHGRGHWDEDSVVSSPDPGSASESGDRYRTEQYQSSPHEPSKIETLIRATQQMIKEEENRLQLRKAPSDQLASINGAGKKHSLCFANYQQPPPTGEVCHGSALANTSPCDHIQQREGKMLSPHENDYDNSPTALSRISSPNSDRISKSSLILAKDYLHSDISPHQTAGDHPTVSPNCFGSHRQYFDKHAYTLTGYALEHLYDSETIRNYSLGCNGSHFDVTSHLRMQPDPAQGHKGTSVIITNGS
hSim1.3xFlag2xStrep(1–348): residues 1-348 of P81133
hSim1(R171H).3xFlag2xStrep(1–348) (P81133, form named): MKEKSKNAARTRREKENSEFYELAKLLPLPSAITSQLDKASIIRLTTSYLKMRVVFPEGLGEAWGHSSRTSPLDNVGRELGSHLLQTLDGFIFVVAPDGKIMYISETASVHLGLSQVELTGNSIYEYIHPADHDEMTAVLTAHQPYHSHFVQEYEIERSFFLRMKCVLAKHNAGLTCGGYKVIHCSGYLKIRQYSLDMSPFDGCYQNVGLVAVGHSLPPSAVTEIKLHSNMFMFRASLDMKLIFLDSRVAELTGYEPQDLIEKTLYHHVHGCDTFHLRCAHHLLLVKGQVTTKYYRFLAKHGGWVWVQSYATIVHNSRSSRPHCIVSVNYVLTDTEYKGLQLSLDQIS
UniProt P27540: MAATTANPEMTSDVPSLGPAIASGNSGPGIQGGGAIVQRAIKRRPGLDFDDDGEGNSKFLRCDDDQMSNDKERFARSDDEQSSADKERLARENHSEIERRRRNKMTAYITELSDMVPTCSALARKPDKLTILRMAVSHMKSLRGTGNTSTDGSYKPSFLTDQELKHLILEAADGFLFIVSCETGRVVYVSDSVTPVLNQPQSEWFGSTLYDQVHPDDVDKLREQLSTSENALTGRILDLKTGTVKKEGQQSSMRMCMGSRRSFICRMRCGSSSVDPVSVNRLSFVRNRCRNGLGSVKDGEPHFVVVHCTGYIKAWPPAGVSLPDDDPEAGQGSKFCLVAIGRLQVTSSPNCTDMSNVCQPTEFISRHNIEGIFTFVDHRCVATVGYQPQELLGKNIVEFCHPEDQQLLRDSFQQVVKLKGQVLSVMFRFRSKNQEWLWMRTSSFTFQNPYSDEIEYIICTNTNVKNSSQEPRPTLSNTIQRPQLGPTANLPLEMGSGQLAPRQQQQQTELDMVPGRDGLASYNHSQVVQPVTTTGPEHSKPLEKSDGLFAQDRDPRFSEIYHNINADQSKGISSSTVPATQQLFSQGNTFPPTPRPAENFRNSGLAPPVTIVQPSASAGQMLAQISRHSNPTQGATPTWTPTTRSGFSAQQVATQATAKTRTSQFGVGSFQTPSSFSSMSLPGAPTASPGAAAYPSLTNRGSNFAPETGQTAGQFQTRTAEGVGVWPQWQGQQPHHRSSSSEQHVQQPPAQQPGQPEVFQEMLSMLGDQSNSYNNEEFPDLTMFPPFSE

How the values were obtained:
[1] = target: hSim1(R171H).3xFlag2xStrep(1–348) (human) (UniProt P81133); assay: affinity purification with mass spectrometry; N-terminal domain: HEK293T co-transfected with hSim1(1–348) 3xFlag2xStrep (WT or R171H) and hARNT2(1-455)-Myc; in-cell DSP cross-linking; whole cell lysate in 420 mM NaCl, 1% Triton X-100; Flag resin, eluted with 3×Flag peptide; mock purification subtracted
[2] = target: hSim1.3xFlag2xStrep(1–348) (human) (UniProt P81133); assay: as above
[3] = target: hSIM1-2×HA-3×Flag, full length (human) (UniProt P81133); assay: affinity purification with mass spectrometry; native, no cross-linker: nuclear extract (420 mM KCl, diluted to ~280 mM KCl) of stable HEK293T cells with full-length SIM1-2×HA-3×Flag (WT or R171H); tandem Flag M2 then HA resin
[4] = target: hSIM1.R171H-2xHA-3×Flag, full length (human) (UniProt P81133); assay: as above
[5] = target: hSIM1-2×HA-3×Flag, full length (human) (UniProt P81133); assay: affinity purification with mass spectrometry; full-length SIM1-2×HA-3×Flag (WT or R171H) in stable HEK293T cells; in-cell DSP cross-linking; whole cell lysate; tandem Flag M2 then HA resin; parent HEK293T as mock
[6] = target: hSIM1.R171H-2xHA-3×Flag, full length (human) (UniProt P81133); assay: as above

Measured: binding

ARNT (endogenous in HEK293T cells) (from UniProt P27540 1-789)
binds: all assays above
